Experimental data: patent US20240417469A1
Numbering of substitutions follows the chain as printed. These are yes or no findings as the source states them, for the method shown. Some results given as binding are weak or reduced against the parent protein; the word gives no strength.

Chains of the proteins cited; added tags and fusions are not shown. Lines headed by an entry give the natural chain unless they say otherwise; changes in a name come on top.
UniProt P07766: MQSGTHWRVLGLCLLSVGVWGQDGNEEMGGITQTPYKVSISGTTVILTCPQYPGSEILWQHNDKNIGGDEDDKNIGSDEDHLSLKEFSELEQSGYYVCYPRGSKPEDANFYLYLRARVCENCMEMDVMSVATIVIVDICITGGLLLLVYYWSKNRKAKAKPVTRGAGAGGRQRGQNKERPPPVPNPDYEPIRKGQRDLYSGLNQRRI
UniProt P04234: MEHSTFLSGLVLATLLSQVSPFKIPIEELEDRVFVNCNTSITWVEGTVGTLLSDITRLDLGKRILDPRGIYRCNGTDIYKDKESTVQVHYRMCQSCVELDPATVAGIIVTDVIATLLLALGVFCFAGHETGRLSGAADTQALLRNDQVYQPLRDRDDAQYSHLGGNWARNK

B1: Hu153A6B1-17 (antibody, V domains shown)
VH: EVQLQESGPGLVKPSETLSLTCTVSGFSISSYNIHWVRQPPGKGLEWMGRIRYNGDTSYNSALKSRLTISRDTSKNQVSLKLSSVTAADTAVYYCTRGPYGGSREPLFDYWGQGTMVTVSS
VL: DIQMTQSPSSLSASVGDRVTITCKTSQNINKYLNWFQQKPGKAPKLLIYTTNNLQTGIPSRFSGSGSGTDFTLTISSLQPEDFATYFCLQHGSGYTFGQGTKLEIK
B2: Hu153A6B1-18 (antibody, V domains shown)
VH: B1 VH with I29L, S30T
VL: B1 VL
B3: Hu155A9B1-1 (antibody, V domains shown)
VH: B1 VH with F27G, I34V, V37I, M48I, I51V, L67V, R71V, V78F, T96A, R104S
VL: B1 VL with T25A, F36Y, K45R, I58V, F87Y, G92N
B4: Hu155A9B1-2 (antibody, V domains shown)
VH: B1 VH with F27G, I34V, M48I, I51V, L67V, V78F, T96A, R104S
VL: B1 VL with T25A, F36Y, K45R, I58V, F87Y, G92N
B5: Hu155A9B1-3 (antibody, V domains shown)
VH: B1 VH with F27G, I34V, I51V, V78F, T96A, R104S
VL: B1 VL with T25A, F36Y, K45R, I58V, F87Y, G92N
B6: Hu155A9B1-4 (antibody, V domains shown)
VH: B1 VH with F27G, I34V, I51V, V78F, R104S
VL: B1 VL with T25A, F36Y, K45R, I58V, F87Y, G92N
B7: Hu155A9B1-5 (antibody, V domains shown)
VH: B1 VH with I34V, I51V, V78A, R104S
VL: B1 VL with T25A, F36Y, K45R, I58V, F87Y, G92N
B8: Hu155A9B1-6 (antibody, V domains shown)
VH: B1 VH with I29L, S30T, I34V, I51V, V78A, R104S
VL: B1 VL with T25A, F36Y, K45R, I58V, F87Y, G92N
B9: Hu155A9B1-7 (antibody, V domains shown)
VH: B1 VH with F27G, I34V, V37I, M48I, I51V, L67V, R71V, V78F, T96A, R104S
VL: B1 VL with T25A, K45R, F87Y, G92N
B10: Hu155A9B1-9 (antibody, V domains shown)
VH: B1 VH with F27G, I34V, I51V, V78F, T96A, R104S
VL: B1 VL with T25A, K45R, F87Y, G92N
B11: Hu155A9B1-10 (antibody, V domains shown)
VH: B1 VH with F27G, I34V, I51V, V78F, R104S
VL: B1 VL with T25A, K45R, F87Y, G92N
B12: Hu155A9B1-11 (antibody, V domains shown)
VH: B1 VH with I34V, I51V, V78A, R104S
VL: B1 VL with T25A, K45R, F87Y, G92N
B13: Hu155A9B1-12 (antibody, V domains shown)
VH: B1 VH with I29L, S30T, I34V, I51V, V78A, R104S
VL: B1 VL with T25A, K45R, F87Y, G92N
B14: Hu155A9B1-13 (antibody, V domains shown)
VH: B1 VH with F27G, I34V, V37I, M48I, I51V, L67V, R71V, V78F, T96A, R104S
VL: B1 VL with T25A, K45R, G92N
B15: Hu155A9B1-14 (antibody, V domains shown)
VH: B1 VH with F27G, I34V, M48I, I51V, L67V, V78F, T96A, R104S
VL: B1 VL with T25A, K45R, G92N
B16: Hu155A9B1-15 (antibody, V domains shown)
VH: B1 VH with F27G, I34V, I51V, V78F, T96A, R104S
VL: B1 VL with T25A, K45R, G92N
B17: Hu155A9B1-16 (antibody, V domains shown)
VH: B1 VH with F27G, I34V, I51V, V78F, R104S
VL: B1 VL with T25A, K45R, G92N
B18: Hu155A9B1-17 (antibody, V domains shown)
VH: B1 VH with I34V, I51V, V78A, R104S
VL: B1 VL with T25A, K45R, G92N
B19: Hu155A9B1-18 (antibody, V domains shown)
VH: B1 VH with I29L, S30T, I34V, I51V, V78A, R104S
VL: B1 VL with T25A, K45R, G92N
B20: Hu192A7B9-1 (antibody, V domains shown)
VH: EVQLQESGPGLVKPSETLSLTCTVSGGSISSYNVHWIRQPPGKGLEWIGRMRYNGDTSYNSALKSRVTISVDTSKNQFSLKLSSVTAADTAVYYCARGPRGGYYSALFDYWGQGTMVTVSS
VL: B1 VL with T25A, K31R, F36Y, T50I, T51A, N53S, I58V, F87Y, G92N, G94W
B21: Hu192A7B9-2 (antibody, V domains shown)
VH: B20 VH with I37V, V71R
VL: B1 VL with T25A, K31R, F36Y, T50I, T51A, N53S, I58V, F87Y, G92N, G94W
B22: Hu192A7B9-3 (antibody, V domains shown)
VH: B20 VH with I37V, I48M, V67L, V71R
VL: B1 VL with T25A, K31R, F36Y, T50I, T51A, N53S, I58V, F87Y, G92N, G94W
B23: Hu192A7B9-4 (antibody, V domains shown)
VH: B20 VH with I37V, I48M, V67L, V71R, A96T
VL: B1 VL with T25A, K31R, F36Y, T50I, T51A, N53S, I58V, F87Y, G92N, G94W
B24: Hu192A7B9-5 (antibody, V domains shown)
VH: B1 VH with I34V, I51M, Y100R, S103Y, R104Y, E105S, P106A
VL: B1 VL with T25A, K31R, F36Y, T50I, T51A, N53S, I58V, F87Y, G92N, G94W
B25: Hu192A7B9-6 (antibody, V domains shown)
VH: B1 VH with I29L, S30T, I34V, I51M, Y100R, S103Y, R104Y, E105S, P106A
VL: B1 VL with T25A, K31R, F36Y, T50I, T51A, N53S, I58V, F87Y, G92N, G94W
B26: Hu192A7B9-7 (antibody, V domains shown)
VH: B20 VH
VL: DIQMTQSPSSLSASVGDRVTITCKASQNINRYLNWYQQKPGKAPKLLISIANSLQTGVPSRFSGSGSGTDFTLTISSLQPEDFATYYCLQHNSWYTFGQGTKLEIK
B27: Hu192A7B9-8 (antibody, V domains shown)
VH: B20 VH with I37V, V71R
VL: B26 VL
B28: Hu192A7B9-9 (antibody, V domains shown)
VH: B20 VH with I37V, I48M, V67L, V71R
VL: B26 VL
B29: Hu192A7B9-10 (antibody, V domains shown)
VH: B20 VH with I37V, I48M, V67L, V71R, A96T
VL: B26 VL
B30: Hu192A7B9-11 (antibody, V domains shown)
VH: B1 VH with I34V, I51M, Y100R, S103Y, R104Y, E105S, P106A
VL: B26 VL
B31: Hu192A7B9-12 (antibody, V domains shown)
VH: B1 VH with I29L, S30T, I34V, I51M, Y100R, S103Y, R104Y, E105S, P106A
VL: B26 VL
B32: Hu192A7B9-13 (antibody, V domains shown)
VH: B20 VH
VL: B26 VL with V58I
B33: Hu192A7B9-14 (antibody, V domains shown)
VH: B20 VH with I37V, V71R
VL: B26 VL with V58I
B34: Hu192A7B9-15 (antibody, V domains shown)
VH: B20 VH with I37V, I48M, V67L, V71R
VL: B26 VL with V58I
B35: Hu192A7B9-16 (antibody, V domains shown)
VH: B20 VH with I37V, I48M, V67L, V71R, A96T
VL: B26 VL with V58I
B36: Hu192A7B9-17 (antibody, V domains shown)
VH: B1 VH with I34V, I51M, Y100R, S103Y, R104Y, E105S, P106A
VL: B26 VL with V58I
B37: Hu192A7B9-18 (antibody, V domains shown)
VH: B1 VH with I29L, S30T, I34V, I51M, Y100R, S103Y, R104Y, E105S, P106A
VL: B26 VL with V58I
B38: Hu192A7B9-19 (antibody, V domains shown)
VH: B20 VH
VL: B26 VL with L46V, V58I, Y87F
B39: Hu192A7B9-20 (antibody, V domains shown)
VH: B20 VH with I37V, V71R
VL: B26 VL with L46V, V58I, Y87F
B40: Hu192A7B9-21 (antibody, V domains shown)
VH: B20 VH with I37V, I48M, V67L, V71R
VL: B26 VL with L46V, V58I, Y87F
B41: Hu192A7B9-22 (antibody, V domains shown)
VH: B20 VH with I37V, I48M, V67L, V71R, A96T
VL: B26 VL with L46V, V58I, Y87F
B42: Hu192A7B9-23 (antibody, V domains shown)
VH: B1 VH with I34V, I51M, Y100R, S103Y, R104Y, E105S, P106A
VL: B26 VL with L46V, V58I, Y87F
B43: Hu192A7B9-24 (antibody, V domains shown)
VH: B1 VH with I29L, S30T, I34V, I51M, Y100R, S103Y, R104Y, E105S, P106A
VL: B26 VL with L46V, V58I, Y87F
B44: 155A9B1 chimeric mAb (antibody, V domains shown)
VH: QVQLKESGPGLVQPSQTLSLTCTVSGFSLTSYNVHWVRQPPGKGLEWMGRVRYNGDTSYNSALKSRLSISRDTSKNQAFLKMNSLQIDDTGTYYCTRGPYGGSSEPLFDYWGQGVMVTVSS
VL: DIKMTQSPSFLSASVGDRVTINCKASQNINKYLNWFQQKLGEAPRLLIYTTNNLQTGIPSRFSGSGSGTDFTLTISSLQPEDVATYFCLQHNSGYTFGAGTKLELK

molecular target: T1, human CD3 protein (human) (UniProt P07766+P04234); test: ELISA

binding, binds:
B1
B2
B3
B4
B5
B6
B7
B8
B9
B10
B11
B12
B13
B14
B15
B16
B17
B18
B19
B20
B21
B22
B23
B24
B25
B26
B27
B28
B29
B30
B31
B32
B33
B34
B35
B36
B37
B38
B39
B40
B41
B42
B43

molecular target: T1, human CD3 protein (human); test: ELISA, plate-coated CD3

binding, binds:
B44
